Results are given in words; binding and its absence hold for the method and conditions named. Binding seen in cells or lysates may run through a third protein. Some binding calls cover weakened binding; strength is not graded here. For some assays here: Where a sequence is shown, tags or fusion partners need not be part of it.
What was measured:
[1] = target: T1, C-terminal Flag-tagged TMEM25 (human) (UniProt Q86YD3); assay: co-IP; HEK293T cells transfected with tagged constructs; anti-Flag IP followed by immunoblotting; TNTE 0.5% Triton X-100 lysis buffer
T1 sequence: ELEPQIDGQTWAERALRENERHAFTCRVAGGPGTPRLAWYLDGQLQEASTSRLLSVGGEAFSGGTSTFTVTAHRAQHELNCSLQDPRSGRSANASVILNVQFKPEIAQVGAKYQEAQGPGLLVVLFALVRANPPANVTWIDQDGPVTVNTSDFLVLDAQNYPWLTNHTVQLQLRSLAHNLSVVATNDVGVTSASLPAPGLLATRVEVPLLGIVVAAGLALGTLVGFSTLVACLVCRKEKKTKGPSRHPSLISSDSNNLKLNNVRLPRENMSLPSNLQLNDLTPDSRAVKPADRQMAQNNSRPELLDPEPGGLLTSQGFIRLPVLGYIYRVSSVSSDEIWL

The chains behind the UniProt entries cited, without tags or fusion partners. Residues count along the entry.
UniProt P21860, residues 20-1342: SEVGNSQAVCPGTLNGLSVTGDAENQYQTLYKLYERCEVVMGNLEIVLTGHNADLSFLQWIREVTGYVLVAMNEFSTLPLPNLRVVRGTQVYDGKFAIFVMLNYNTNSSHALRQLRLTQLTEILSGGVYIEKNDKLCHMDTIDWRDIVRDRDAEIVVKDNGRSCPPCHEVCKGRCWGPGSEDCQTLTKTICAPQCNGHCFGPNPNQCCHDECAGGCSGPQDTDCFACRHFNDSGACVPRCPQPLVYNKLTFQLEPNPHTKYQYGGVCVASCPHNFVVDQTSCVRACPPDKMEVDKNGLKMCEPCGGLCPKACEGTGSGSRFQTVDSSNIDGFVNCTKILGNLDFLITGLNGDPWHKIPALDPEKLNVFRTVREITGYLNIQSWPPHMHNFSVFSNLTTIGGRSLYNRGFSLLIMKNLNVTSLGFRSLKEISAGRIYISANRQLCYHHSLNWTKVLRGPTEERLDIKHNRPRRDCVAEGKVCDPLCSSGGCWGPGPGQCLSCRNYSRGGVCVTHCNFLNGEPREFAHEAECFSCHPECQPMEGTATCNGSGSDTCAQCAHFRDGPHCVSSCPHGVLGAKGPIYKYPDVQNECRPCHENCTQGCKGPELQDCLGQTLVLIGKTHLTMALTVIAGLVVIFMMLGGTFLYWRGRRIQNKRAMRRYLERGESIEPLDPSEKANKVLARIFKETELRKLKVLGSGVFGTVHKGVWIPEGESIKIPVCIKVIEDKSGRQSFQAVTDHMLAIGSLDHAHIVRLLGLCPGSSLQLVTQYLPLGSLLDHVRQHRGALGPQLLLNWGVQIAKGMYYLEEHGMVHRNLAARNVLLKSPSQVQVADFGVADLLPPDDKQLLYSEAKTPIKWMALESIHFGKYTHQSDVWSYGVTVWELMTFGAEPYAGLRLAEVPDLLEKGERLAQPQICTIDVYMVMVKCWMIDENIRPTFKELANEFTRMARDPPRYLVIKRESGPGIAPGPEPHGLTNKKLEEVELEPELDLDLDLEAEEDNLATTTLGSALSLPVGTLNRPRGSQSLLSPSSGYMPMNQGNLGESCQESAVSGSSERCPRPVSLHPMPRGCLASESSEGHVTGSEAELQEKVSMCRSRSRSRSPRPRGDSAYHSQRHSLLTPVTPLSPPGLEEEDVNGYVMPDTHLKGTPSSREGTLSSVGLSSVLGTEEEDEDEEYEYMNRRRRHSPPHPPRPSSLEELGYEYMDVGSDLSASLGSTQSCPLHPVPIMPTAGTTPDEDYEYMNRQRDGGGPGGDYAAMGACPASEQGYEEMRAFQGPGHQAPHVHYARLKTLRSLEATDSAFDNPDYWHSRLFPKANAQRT
UniProt Q15303, residues 26-1308: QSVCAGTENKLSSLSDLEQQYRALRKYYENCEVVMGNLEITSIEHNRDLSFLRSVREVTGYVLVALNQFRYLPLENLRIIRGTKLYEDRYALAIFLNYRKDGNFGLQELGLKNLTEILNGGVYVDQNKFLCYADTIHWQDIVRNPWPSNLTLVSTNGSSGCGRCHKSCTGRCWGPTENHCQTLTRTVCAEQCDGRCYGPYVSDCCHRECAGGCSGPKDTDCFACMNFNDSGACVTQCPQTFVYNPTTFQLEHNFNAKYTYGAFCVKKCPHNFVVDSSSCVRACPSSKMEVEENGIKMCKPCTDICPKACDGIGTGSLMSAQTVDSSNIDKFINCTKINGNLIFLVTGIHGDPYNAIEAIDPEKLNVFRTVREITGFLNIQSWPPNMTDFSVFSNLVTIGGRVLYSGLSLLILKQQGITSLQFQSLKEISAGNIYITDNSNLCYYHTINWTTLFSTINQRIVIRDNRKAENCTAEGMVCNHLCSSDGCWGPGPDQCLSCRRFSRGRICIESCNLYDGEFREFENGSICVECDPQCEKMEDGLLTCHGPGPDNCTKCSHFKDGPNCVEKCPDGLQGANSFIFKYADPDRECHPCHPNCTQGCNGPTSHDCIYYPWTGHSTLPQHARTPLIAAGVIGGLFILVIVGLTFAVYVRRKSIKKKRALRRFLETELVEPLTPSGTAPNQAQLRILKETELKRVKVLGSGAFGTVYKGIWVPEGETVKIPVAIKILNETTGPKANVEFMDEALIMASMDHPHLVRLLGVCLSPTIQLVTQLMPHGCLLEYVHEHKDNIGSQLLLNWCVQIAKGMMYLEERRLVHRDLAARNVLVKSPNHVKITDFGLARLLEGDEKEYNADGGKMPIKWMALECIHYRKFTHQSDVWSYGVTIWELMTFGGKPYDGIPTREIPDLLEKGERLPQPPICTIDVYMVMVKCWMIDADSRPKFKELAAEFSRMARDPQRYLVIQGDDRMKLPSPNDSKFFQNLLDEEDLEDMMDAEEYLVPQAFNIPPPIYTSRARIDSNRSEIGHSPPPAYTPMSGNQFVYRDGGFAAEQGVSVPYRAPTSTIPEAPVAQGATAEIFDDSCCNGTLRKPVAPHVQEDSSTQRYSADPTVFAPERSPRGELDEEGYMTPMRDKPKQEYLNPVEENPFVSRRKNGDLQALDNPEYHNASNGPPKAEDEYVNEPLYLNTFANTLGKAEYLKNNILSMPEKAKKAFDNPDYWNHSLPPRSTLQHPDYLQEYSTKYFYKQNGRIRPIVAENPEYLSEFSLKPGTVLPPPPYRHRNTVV

[2] = target: T2, TMEM25, endogenous in MDA-MB-231 cells (human (endogenous in MDA-MB-231)) (UniProt Q86YD3); assay: co-IP; endogenous proteins, MDA-MB-231 cell lysates (TNTE 0.5% Triton X-100 lysis buffer, protein G agarose, 4 °C, 3 h); anti-TMEM25 IP or anti-EGFR IP; wild-type or TMEM25 knockout cells for EGFR with STAT3
T2 sequence: T1 sequence

Substance | binding [1] | binding [2]
C-terminal hemagglutinin (HA)-tagged EGFR (from UniProt P00533 25-1210) (receptor) | binds | –
C-terminal hemagglutinin (HA)-tagged HER2 (from UniProt P04626 23-1255) (receptor) | no binding | –
C-terminal hemagglutinin (HA)-tagged HER3 (from UniProt P21860 20-1342) (receptor) | no binding | –
C-terminal hemagglutinin (HA)-tagged HER4 (from UniProt Q15303 26-1308) (receptor) | no binding | –
EGFR, endogenous in MDA-MB-231 cells (from UniProt P00533 25-1210) (receptor) | – | binds

— publication PMC10126118
